The other results are listed elsewhere or left out. Further columns of the screen follow, without active or inactive calls. Compounds called inactive in the main read-out are mostly missing here. Words in brackets tell the shape of the fitted curve; partial curves, single points and poor fits give uncertain potencies.
Test: qHTS Assay for Lipid Storage Modulators in Drosophila S3 Cells;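 as to cell number change: cells counted by Cell Tracker Red CMTPX staining in the red channel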
Settings: BODIPY lipid droplet fluorescence, 18-24 h; for cell number change: measured here: cell count max response, cells fed with added oleic acid
Outline: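 Drosophila S3 cells loaded with oleic acid (400 uM, as added) and compounds at several concentrations; lipid droplets imaged by 488-nm laser-scanning cytometry, 500–530 nm intensity and object ratio to cell channel. Percent activity normalized to 20 uM Triacsin C.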

[1] = measured here: cell number channel AC50, cells fed with added oleic acid
[2] = measured here: lipid fluorescence (Fed channel) AC50, cells fed with added oleic acid

| SMILES | cell number change | AC50 [1] | AC50 [2] |
| --- | --- | --- | --- |
| CCN1CCN(c2ccc(S(=O)(=O)N3CCCCC3)cc2NC(=O)/C=C/c2ccc(OC(F)F)cc2)CC1 | -25% | 4.61 µM [rising, single point] | – |
| O=C(OCC(=O)N1CCc2ccccc21)c1cc(S(=O)(=O)N2CCOCC2)ccc1F | -71.7% | 16.4 µM [falling, single point] | – |
| C/C(=N\NC(=O)c1ccccc1O)C1CC1 | 26.1% | – | 0.206 µM [rising, single point] |
| Cc1ccc(CNC(=O)C2CCN(C(=O)Nc3ccc(C)cc3)CC2)cc1 | -6.85% | – | 29.1 µM [rising, single point] |
| CCC(=O)c1ccc(OCC(=O)OCC(=O)N(C)CC(=O)Nc2ccc(F)cc2)cc1 | 6.37% | – | 4.11 µM [falling, single point] |
| CCCn1c(NC(=S)Nc2ccccc2)nc2ccccc21 | 0.302% | – | 0.82 µM [falling, full curve, poor fit] |
| COc1ccc(S(=O)(=O)NCCSc2ccccc2)cc1OC | 34.1% | 29.1 µM [rising, single point] | – |
| C[C@H](NC(=O)OC(C)(C)C)c1nnc(SCC(=O)c2ccc(Cl)cc2)o1 | 3.58% | – | 0.116 µM [falling, full curve] |
| CCCc1ccc(OCc2ccc(C(=O)N3CCCC3)o2)cc1 | -16.7% | 0.164 µM [falling, single point] | 29.1 µM [falling, partial curve, poor fit] |
| Cc1ccc(C(=O)NCc2ccccc2)cc1Br | 117% | 0.146 µM [rising, full curve] | 23.1 µM [rising, single point] |
| Cc1cccc(NC(=O)CSCC(=O)N2CCN(c3cccc(C(F)(F)F)c3)CC2)c1 | -3.28% | – | 14.6 µM [falling, partial curve] |
| CCN1CCN(C(=O)c2ccc(Cn3c(=O)[nH]c4cc(OC)c(OC)cc4c3=O)cc2)CC1 | 15.6% | – | – |
| S=c1[nH]nc(-c2cc(-c3ccsc3)n[nH]2)n1-c1cccc2ccccc12 | 24.5% | 0.82 µM [rising, full curve, poor fit] | 0.82 µM [rising, full curve, poor fit] |
| O=C(Cc1cccc(C(F)(F)F)c1)OCN1C(=O)c2ccccc2C1=O | 18.3% | – | 1.16 µM [rising, single point] |
| N#C/C(=C\Nc1ccc(F)c(Cl)c1)S(=O)(=O)c1ccccn1 | -36.3% | – | 23.1 µM [falling, single point] |
| COc1ccc(-c2cn3cccc(C)c3n2)cc1Br | – | – | 20.6 µM [rising, single point] |

One compound at a time, from the list above:
O=C(OCC(=O)N1CCc2ccccc21)c1cc(S(=O)(=O)N2CCOCC2)ccc1F is listed with cell number change: -71.7%; AC50 [1]: 16.4 µM [falling, single point]
COc1ccc(S(=O)(=O)NCCSc2ccccc2)cc1OC is listed with cell number change: 34.1%; AC50 [1]: 29.1 µM [rising, single point]

Reference: PubChem BioAssay AID2685 (National Center for Advancing Translational Sciences (NCATS), 2010)
